{"source": "PubChem BioAssay AID686937 (Drosophila RNAi Screening Center, 2013)", "assay": "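Genes whose loss weakens secretory pathway function in fly cells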 (primary screen)", "cell system": "Drosophila S2 cells expressing secreted horseradish peroxidase", "reagent": "long dsRNA against Drosophila genes", "time to read-out": "about 5.5 days (5 days dsRNA, then 12 h reporter induction)", "challenge": "reporter expression induced after 5 days of dsRNA, read 12 h later; inducer not stated", "read-out": "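After 5 days of dsRNA and 12 h of reporter induction, medium peroxidase read by chemiluminescence and scored as per-plate z-score; higher values mean more reporter released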", "direction": "z-score: higher = more reporter secreted into medium", "note": "The screen tested about 23,000 reagents; shown is an unselected part of those with a known target gene and a result. 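Reduced-secretion tags in replicate 1 do not always agree with the z-scores; no criterion for assigning the tags was given.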 Not all columns of the deposit are shown. Not stated in the record: the amount of reagent."}
{"gene": "CG42562", "DRSC id": "DRSC06453", "z-score, replicate 1": 0.52}
{"gene": "Cow", "DRSC id": "DRSC13601", "z-score, replicate 1": -0.18}
{"gene": "Cow", "DRSC id": "DRSC14680", "z-score, replicate 1": 0.44}
{"gene": "CG4945", "DRSC id": "DRSC06904", "z-score, replicate 1": 0.21}
{"gene": "Slimp", "DRSC id": "DRSC13656", "z-score, replicate 1": 0.16}
{"gene": "CG44774", "DRSC id": "DRSC18342", "z-score, replicate 1": 0.3}
{"gene": "meng", "DRSC id": "DRSC02134", "z-score, replicate 1": 0.59}
{"gene": "zen", "DRSC id": "DRSC12632", "z-score, replicate 1": 0.44}
{"gene": "CG43691", "DRSC id": "DRSC06650", "z-score, replicate 1": 0.25}
{"gene": "CG43691", "DRSC id": "DRSC06651", "z-score, replicate 1": 0.21}
{"gene": "CG4880", "DRSC id": "DRSC19923", "z-score, replicate 1": 0.38}
{"gene": "CG6443", "DRSC id": "DRSC02958", "z-score, replicate 1": -0.04}
{"gene": "Usp8", "DRSC id": "DRSC15876", "z-score, replicate 1": 0.09}
{"gene": "CG14763", "DRSC id": "DRSC06497", "z-score, replicate 1": 0.25}
{"gene": "Nrt", "DRSC id": "DRSC11237", "z-score, replicate 1": 0.43}
{"gene": "CG32726", "DRSC id": "DRSC17521", "z-score, replicate 1": 0.5}
{"gene": "Eglp2", "DRSC id": "DRSC04294", "z-score, replicate 1": 0.21}
{"gene": "Naa80", "DRSC id": "DRSC16429", "z-score, replicate 1": 0.45}
{"gene": "CG4716", "DRSC id": "DRSC06884", "z-score, replicate 1": 0.21}
{"gene": "pths", "DRSC id": "DRSC03171", "z-score, replicate 1": -1.76}
{"gene": "Mis12", "DRSC id": "DRSC10299", "z-score, replicate 1": -0.64}
{"gene": "Ugt37D1", "DRSC id": "DRSC02645", "z-score, replicate 1": 0.17}
{"gene": "AnxB9", "DRSC id": "DRSC14111", "z-score, replicate 1": 0.48}
{"gene": "CG12129", "DRSC id": "DRSC06105", "z-score, replicate 1": 0.22}
{"gene": "Grip91", "DRSC id": "DRSC20249", "z-score, replicate 1": 0.19}
{"gene": "Cox11", "DRSC id": "DRSC22692", "z-score, replicate 1": 0.49}
{"gene": "Ppt1", "DRSC id": "DRSC17806", "z-score, replicate 1": 0.27}
{"gene": "CG11714", "DRSC id": "DRSC09857", "z-score, replicate 1": -0.51}
{"gene": "CG12426", "DRSC id": "DRSC14516", "z-score, replicate 1": 0.39}
{"gene": "CG31221", "DRSC id": "DRSC14335", "z-score, replicate 1": -0.08}
{"gene": "CG31221", "DRSC id": "DRSC16217", "z-score, replicate 1": 0.18}
{"gene": "iPLA2-VIA", "DRSC id": "DRSC10699", "z-score, replicate 1": -0.68}
{"gene": "ND-13B", "DRSC id": "DRSC10643", "z-score, replicate 1": -0.3}

Already shown: entries from further up.
{"gene": "CG44774", "DRSC id": "DRSC18342", "z-score, replicate 1": 0.3}
{"gene": "meng", "DRSC id": "DRSC02134", "z-score, replicate 1": 0.59}
{"gene": "zen", "DRSC id": "DRSC12632", "z-score, replicate 1": 0.44}
{"gene": "CG43691", "DRSC id": "DRSC06650", "z-score, replicate 1": 0.25}
{"gene": "CG43691", "DRSC id": "DRSC06651", "z-score, replicate 1": 0.21}
{"gene": "CG4880", "DRSC id": "DRSC19923", "z-score, replicate 1": 0.38}
{"gene": "CG6443", "DRSC id": "DRSC02958", "z-score, replicate 1": -0.04}
{"gene": "Usp8", "DRSC id": "DRSC15876", "z-score, replicate 1": 0.09}

Additional entries follow:
{"gene": "CycJ", "DRSC id": "DRSC08653", "z-score, replicate 1": 0.11}
{"gene": "Cad96Cb", "DRSC id": "DRSC14243", "z-score, replicate 1": -0.12}
{"gene": "Cad96Cb", "DRSC id": "DRSC14665", "z-score, replicate 1": 0.45}
{"gene": "CG6901", "DRSC id": "DRSC16129", "z-score, replicate 1": 0.41}
{"gene": "gt", "DRSC id": "DRSC18782", "z-score, replicate 1": -0.25}
{"gene": "Calx", "DRSC id": "DRSC13457", "z-score, replicate 1": -2.25}
{"gene": "Calx", "DRSC id": "DRSC13459", "z-score, replicate 1": 0.59}
{"gene": "Calx", "DRSC id": "DRSC16599", "z-score, replicate 1": 0.42}
{"gene": "Calx", "DRSC id": "DRSC21850", "z-score, replicate 1": 0.83}
{"gene": "CG31064", "DRSC id": "DRSC14756", "z-score, replicate 1": 0.31}
{"gene": "CG31064", "DRSC id": "DRSC15941", "z-score, replicate 1": 0.34}
{"gene": "CG31064", "DRSC id": "DRSC15942", "z-score, replicate 1": 0.44}
{"gene": "CG31064", "DRSC id": "DRSC15943", "z-score, replicate 1": 0.27}
{"gene": "Polr2C", "DRSC id": "DRSC03415", "z-score, replicate 1": -4.16}
{"gene": "Mad", "DRSC id": "DRSC00759", "z-score, replicate 1": -0.02}
{"gene": "CG9550", "DRSC id": "DRSC03262", "z-score, replicate 1": 0.52}
{"gene": "Cdk2", "DRSC id": "DRSC16921", "z-score, replicate 1": -0.41}
{"gene": "antr", "DRSC id": "DRSC22392", "z-score, replicate 1": 0.53}
